Measured values as given in PMC3817308, “Metal-sensitive and thermostable trypsin from the crevalle jack (Caranx hippos) pyloric caeca: purification and characterization” (Chemistry Central Journal, 2013).

Tested on: T1, trypsin from crevalle jack (Caranx hippos) pyloric caeca
T1 construct: gene trypsin-like enzyme; native, purified from pyloric caeca (heat, ammonium sulfate, Sephadex G-75); mature N-terminus IVGGFECTPHVFAYQ
Assay: residual activity, BApNA hydrolysis at […] nm
Format: biochemical
Details: 1000 µM, 30 min preincubation with 1 mM inhibitor, 4 mM BApNA

| SMILES | Residual activity ± SD (%) (covalent) | Residual activity ± SD (%) |
| --- | --- | --- |
| Cc1ccc(S(=O)(=O)N[C@@H](CCCCN)C(=O)CCl)cc1 [TLCK] | 0 ± 0 | – |
| N=C(N)c1ccccc1 [benzamidine] | – | 1.43 ± 0.2 |
